The list is a part of this screen's results and no random one: it is rich in T/C values a quarter to a half above the control, in often repeated tests (any T/C) and in doses without a T/C. Further doses and runs are listed elsewhere. T/C is the treated group as % of the vehicle group. Some doses have a count of surviving animals in place of a T/C: the source holds a T/C of zero for them, seemingly a mark for toxic or unscored doses. Some survivor counts are full or nearly so, which does not show that the dose was tolerated: the source hardly ever lists a survival T/C far under the control, and the zero likely stands for such cases as well. Counts of survivors are from the toxicity check (mostly the fifth day) where no day follows; animals may have died later. Schedule codes are those of the source, read here as Q, the interval in days (D) or hours (H), X, the number of doses. Some doses were run more than once; the results are listed from low to high. Some schedules carry Z or #; the key to these is not given. For survival time, this PubChem deposit counts one and a half times the control or more as active, and values a quarter to a half above the control carry no call in these data; other NCI protocols may use other cut-offs. Some T/C values are followed by the survivors on the day toxicity was checked, most often the fifth; without a count, all were alive then. Counts like (3×) say how often a value occurs here.
Test system: C57BL/6 mice, intracerebral ependymoblastoma, median survival T/C
Experiment: NCI In Vivo Anticancer Drug Screen. Data for tumor model Ependymoblastoma (intracerebral) in C57BL/6 mice
Conditions: T/C endpoint: median survival time, higher T/C = longer survival
Method: The antitumor activity of compounds was measured in mice bearing transplantable tumors. Survival or tumor size were measured and the results are expressed as the measurement made in the treated group (T) divided by the measurement made in the vehicle treated control group (C). The tumor model used in this assay is Ependymoblastoma (intracerebral) in C57BL/6 mice

[1] = dose: 4.0 mg/kg/injection, schedule: Q01DX005 (ip), vehicle: Klucel (hydroxypropylcellulose) (HPC)
[2] = dose: 8.0 mg/kg/injection, schedule: Q01DX005 (ip), vehicle: Klucel (hydroxypropylcellulose) (HPC)
[3] = dose: 16.0 mg/kg/injection, schedule: Q01DX005 (ip), vehicle: Klucel (hydroxypropylcellulose) (HPC)
[4] = dose: 256.0 mg/kg/injection, schedule: Q#A X002 (ip), vehicle: Klucel (hydroxypropylcellulose) (HPC)
[5] = dose: 32.0 mg/kg/injection, schedule: Q01DX005 (ip), vehicle: saline
[6] = dose: 64.0 mg/kg/injection, schedule: Q01DX005 (ip), vehicle: saline
[7] = dose: 128.0 mg/kg/injection, schedule: Q01DX005 (ip), vehicle: saline
[8] = dose: 64.0 mg/kg/injection, schedule: Q01DX005 (ip), vehicle: Klucel (hydroxypropylcellulose) (HPC)
[9] = dose: 64.0 mg/kg/injection, schedule: Q01DX005 (ip), vehicle: saline with Tween-80
[10] = dose: 128.0 mg/kg/injection, schedule: Q01DX005 (ip), vehicle: Klucel (hydroxypropylcellulose) (HPC)
[11] = dose: 512.0 mg/kg/injection, schedule: Q01DX001 (ip), vehicle: Klucel (hydroxypropylcellulose) (HPC)

COc1cc(NS(C)(=O)=O)ccc1Nc1c2ccccc2nc2ccccc12
survivor count [1]: 10 of 10
survivor count (dose: 4.0 mg/kg/injection, schedule: Q01DX005 (ip), vehicle: saline + alcohol): 10 of 10
survivor count [2]: 10 of 10
survivor count (dose: 8.0 mg/kg/injection, schedule: Q01DX005 (ip), vehicle: saline + alcohol): 9 of 10 and 10 of 10
survivor count (dose: 8.0 mg/kg/injection, schedule: Q01DX005 (ip), vehicle: water): 10 of 10
survivor count [3]: 8 of 10 and 10 of 10
survivor count (dose: 16.0 mg/kg/injection, schedule: Q01DX005 (ip), vehicle: saline + alcohol): 5 of 10 and 10 of 10
survivor count (dose: 16.0 mg/kg/injection, schedule: Q01DX005 (ip), vehicle: water): 10 of 10
survivor count (dose: 16.0 mg/kg/injection, schedule: Q#A X002 (ip), vehicle: Klucel (hydroxypropylcellulose) (HPC)): 1 of 10
survivor count (dose: 64.0 mg/kg/injection, schedule: Q01DX001 (ip), vehicle: Klucel (hydroxypropylcellulose) (HPC)): 8 of 10 and 9 of 10
survivor count (dose: 128.0 mg/kg/injection, schedule: Q#A X002 (ip), vehicle: Klucel (hydroxypropylcellulose) (HPC)): 0 of 10
survivor count (dose: 256.0 mg/kg/injection, schedule: Q01DX001 (oral), vehicle: Klucel (hydroxypropylcellulose) (HPC)): 9 of 10
survivor count [4]: 0 of 10

Nc1nc(=S)c2ncn(C3OC(CO)CC3O)c2[nH]1 (centres undefined)
survivor count (dose: 20.0 mg/kg/injection, schedule: Q01DX005 (ip), vehicle: saline): 9 of 10
survivor count (dose: 40.0 mg/kg/injection, schedule: Q01DX005 (ip), vehicle: saline): 10 of 10

COS(C)(=O)=O
T/C [5]: 145 % of control
survivor count [6]: 10 of 10
survivor count [7]: 0 of 10

CCOC(=O)C(CC(C)C)NC(=O)C(Cc1ccc(N(CCCl)CCCl)cc1)NC(C)=O (centres undefined)
T/C [1]: 104, 108, 109 [9 of 10 alive], 110 % of control
T/C [2]: 102, 103, 111, 123 % of control
T/C [3]: 104, 106, 113, 115 % of control
T/C (dose: 16.0 mg/kg/injection, schedule: Q01DX005 (ip), vehicle: saline with Tween-80): 126 % of control
T/C (dose: 32.0 mg/kg/injection, schedule: Q01DX005 (ip), vehicle: Klucel (hydroxypropylcellulose) (HPC)): 97, 114, 118, 129 % of control
survivor count [8]: 8 of 10 and 10 of 10
survivor count [9]: 9 of 10
survivor count [10]: 0 of 10
survivor count (dose: 128.0 mg/kg/injection, schedule: Q01DX005 (ip), vehicle: saline with Tween-80): 7 of 10 and 8 of 10
survivor count [4]: 0 of 10
survivor count [11]: 6 of 10

COc1ccc2c(c1O)-c1cc(O)cc3c1C(C2)N(CCCl)CC3 (centres undefined)
survivor count (dose: 8.0 mg/kg/injection, schedule: Q01DX005 (ip), vehicle: saline with Tween-80): 10 of 10
survivor count (dose: 32.0 mg/kg/injection, schedule: Q01DX005 (ip), vehicle: saline with Tween-80): 8 of 10
survivor count [9]: 0 of 10 and 1 of 10

CCC1=C[C@H]2CN(CCc3c([nH]c4ccccc34)[C@@](C(=O)OC)(c3cc4c(cc3OC)N(C)[C@H]3[C@@](O)(C(=O)NC)[C@H](OC(C)=O)[C@]5(CC)C=CCN6CC[C@]43[C@@H]65)C2)C1
survivor count (dose: 1.6 mg/kg/injection, schedule: Q01DX005 (ip), vehicle: Klucel (hydroxypropylcellulose) (HPC)): 6 of 6
survivor count (dose: 3.2 mg/kg/injection, schedule: Q01DX005 (ip), vehicle: Klucel (hydroxypropylcellulose) (HPC)): 6 of 6
survivor count (dose: 6.4 mg/kg/injection, schedule: Q01DX005 (ip), vehicle: Klucel (hydroxypropylcellulose) (HPC)): 2 of 6
survivor count (dose: 12.8 mg/kg/injection, schedule: Q01DX005 (ip), vehicle: Klucel (hydroxypropylcellulose) (HPC)): 1 of 6

Cc1c2ccncc2c(C)c2c1[nH]c1ccccc12
survivor count (dose: 256.0 mg/kg/injection, schedule: Q01DX001 (ip), vehicle: Klucel (hydroxypropylcellulose) (HPC)): 9 of 10
survivor count [11]: 9 of 10
survivor count (dose: 768.0 mg/kg/injection, schedule: Q01DX001 (ip), vehicle: Klucel (hydroxypropylcellulose) (HPC)): 9 of 10

Cc1c[nH]c(=O)[nH]c1=O
survivor count [8]: 10 of 10

CCOC(=O)C(C)(C)Oc1ccc(Cl)cc1
survivor count (dose: 400.0 mg/kg/injection, schedule: Q01DX005 (ip), vehicle: saline with Tween-80): 4 of 10
survivor count (dose: 800.0 mg/kg/injection, schedule: Q01DX005 (ip), vehicle: saline with Tween-80): 0 of 10

C1CN1c1nc(N2CC2)nc(N2CC2)n1
T/C (dose: 0.5 mg/kg/injection, schedule: Q01DX005 (ip), vehicle: saline): 139 % of control
survivor count (dose: 1.0 mg/kg/injection, schedule: Q01DX005 (ip), vehicle: saline): 9 of 10
survivor count (dose: 2.0 mg/kg/injection, schedule: Q01DX005 (ip), vehicle: saline): 8 of 10

CCCCCCCCCCCCCC(=O)OC12CC(C)C3(O)C(C=C(CO)C(O)C4(O)C(=O)C(C)=CC43)C1C2(C)C (centres undefined)
survivor count (dose: 1.0 mg/kg/injection, schedule: Q01DX005 (ip), vehicle: acetone): 5 of 10

CCN(CC)CCOc1ccc(/C(=C(\Cl)c2ccccc2)c2ccccc2)cc1
T/C (dose: 8.0 mg/kg/injection, schedule: Q01DX005 (ip), vehicle: saline): 97 [9 of 10 alive], 102 (2×), 108, 123 % of control
T/C (dose: 16.0 mg/kg/injection, schedule: Q01DX005 (ip), vehicle: saline): 94, 97 [9 of 10 alive], 102, 106, 118 % of control
T/C [5]: 88, 98, 102, 104, 106 % of control
T/C [6]: 93 [7 of 10 alive], 96, 104, 113, 119 % of control
survivor count [10]: 1 of 10 and 3 of 10
survivor count [7]: 0 of 10, 6 of 10, 7 of 10, 10 of 10
survivor count (dose: 256.0 mg/kg/injection, schedule: Q01DX005 (oral), vehicle: Klucel (hydroxypropylcellulose) (HPC)): 10 of 10
survivor count (dose: 512.0 mg/kg/injection, schedule: Q01DX005 (oral), vehicle: Klucel (hydroxypropylcellulose) (HPC)): 9 of 10

From PubChem BioAssay AID222 (DTP/NCI, 2004)
